{
  "sequences": {"note": "By UniProt entry, the sequences of proteins in these tests, tags left out.", "UniProt P0ABQ4": "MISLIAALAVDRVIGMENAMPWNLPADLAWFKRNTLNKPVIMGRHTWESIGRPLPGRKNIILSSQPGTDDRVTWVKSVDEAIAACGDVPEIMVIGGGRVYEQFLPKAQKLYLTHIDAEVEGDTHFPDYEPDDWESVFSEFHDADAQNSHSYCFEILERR"},
  "source": "paper PMC4889105",
  "key": {"[1]": {"target": "biotinylated p53 (wild type) (UniProt P04637)", "test": "AlphaScreen or HTRF; screen of the E3 protein array (258 FLAG-E3s, crude) against biotinylated p53 as bait, conditions as in the model assay, robotic dispensing; signal with p53 divided by signal with biotinylated DHFR; hits: relative value higher than 8"}, "[2]": {"target": "biotinylated p53 (wild type) (UniProt P04637)", "test": "AlphaScreen or HTRF; model assay: 0.75 μL crude biotinylated protein and 0.75 μL crude FLAG-protein, 100 mM Tris-HCl pH 7.5, 1 mg/mL BSA, 0.1% Tween 20, 100 mM NaCl, 26°C 1 h; streptavidin donor beads, anti-DYKDDDDK antibody with protein A acceptor beads, 23°C 1 h; 384-well"}, "[3]": {"target": "biotinylated dihydrofolate reductase (UniProt P0ABQ4)", "test": "condition: 0.75 μL of each crude translation mixture; AlphaScreen or HTRF; model assay: 0.75 μL crude biotinylated protein and 0.75 μL crude FLAG-protein, 100 mM Tris-HCl pH 7.5, 1 mg/mL BSA, 0.1% Tween 20, 100 mM NaCl, 26°C 1 h; streptavidin donor beads, anti-DYKDDDDK antibody with protein A acceptor beads, 23°C 1 h; 384-well"}, "[4]": {"target": "biotinylated p53 (wild type) (UniProt P04637)", "test": "AlphaScreen or HTRF; fixed amount of biotinylated p53 (0.75 μl) mixed with 0.25 to 3.0 μl of crude FLAG-E3s, same procedure as Fig 3A"}, "[5]": {"target": "biotinylated p53 (wild type) (UniProt P04637)", "test": "condition: 0.75 μL of each crude translation mixture; AlphaScreen or HTRF; model assay: 0.75 μL crude biotinylated protein and 0.75 μL crude FLAG-protein, 100 mM Tris-HCl pH 7.5, 1 mg/mL BSA, 0.1% Tween 20, 100 mM NaCl, 26°C 1 h; streptavidin donor beads, anti-DYKDDDDK antibody with protein A acceptor beads, 23°C 1 h; 384-well"}, "[6]": {"target": "FLAG-MDM2 (wild type) (mouse) (UniProt P23804)", "test": "co-IP; crude biotinylated p53 and crude FLAG-MDM2 from the wheat cell-free system mixed, 150 mM NaCl, 26°C 1 h; precipitated with anti-DYKDDDDK antibody on Protein G Dynabeads, eluted with DYKDDDDK peptide; blot with anti-FLAG and anti-biotin antibodies"}},
  "note": "No constants are given. Whether binding was seen depends on the method and setting. For part of these data: Binding seen in cells or lysates may run through a third protein. Some binding calls cover weakened binding; strength is not graded here.",
  "data": [
    {"substance": "FLAG-MDM2 (wild type) (from UniProt P23804 1-489) (enzyme)", "values": [
      {"measurement": "binding", "setting": "[1]", "result": "binds"},
      {"measurement": "binding", "setting": "[2]", "result": "binds"},
      {"measurement": "binding", "setting": "[3]", "result": "no binding"},
      {"measurement": "binding", "setting": "[4]", "result": "binds"}
    ]},
    {"substance": "FLAG-dihydrofolate reductase (from UniProt P0ABQ4 1-159) (enzyme)", "values": [
      {"measurement": "binding", "setting": "[5]", "result": "no binding"}
    ]},
    {"substance": "biotinylated p53 (wild type) (from UniProt P04637 1-393)", "values": [
      {"measurement": "binding", "setting": "[6]", "result": "binds"}
    ]}
  ]
}
